This experiment concerns the target TIM-3重组蛋白 (human) (UniProt Q8TDQ0). As to the kind of experiment: ELISA: TIM-3 coated, biotinylated Galectin-9-rFc as positive control, HRP-streptavidin. A general note: An ELISA detects its analyte on a solid surface through an enzyme-linked reagent.

Amino acid sequences for entries named in this document (tags omitted). Residues count along the entry.
UniProt Q8TDQ0, residues 22-200: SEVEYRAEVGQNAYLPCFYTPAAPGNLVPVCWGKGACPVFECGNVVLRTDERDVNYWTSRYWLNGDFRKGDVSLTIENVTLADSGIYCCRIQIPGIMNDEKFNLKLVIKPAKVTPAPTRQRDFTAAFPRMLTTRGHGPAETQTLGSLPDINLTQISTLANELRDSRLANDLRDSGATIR

These are yes or no findings as the source states them, for the method shown. Some binding calls cover weakened binding; strength is not graded here.

Consider “Galectin-9-rFc (from UniProt O00182 1-355) (Fc fusion)”, for which the binding result was “binds”.

These data come from patent CN110938146A.
